According to PubChem BioAssay AID652104 (National Center for Advancing Translational Sciences (NCATS), 2013):
Hit rate of the full screen: of about 410,000 compounds, about 7,200 (1.8%) were called active. Only results without a clear call are listed here; the source files them as inconclusive. The call rests on the fitted dose curve; in most records, active means well fitted activation curve with a large enough effect; inconclusive means small, poorly fitted or top-dose-only effect, or another doubt; inactive means no such curve, though single readings can be large or run the other way.

experiment: qHTS of TDP-43 Inhibitors; conditions: TDP-43 expressing yeast growth rescue, BacTiter-Glo, 24 h; further: nearly all actives have a fitted effect of over 50% in size
Potency means the concentration at half of the fitted maximal effect.

SMILES	Potency
Cc1cc(C)cc(OP(C)(=O)Nc2ccc(SC(F)(F)F)cc2)c1 (centres undefined)	inconclusive: 22.4 µM
COc1ccc(OP(C)(=O)Nc2ccc(SC(F)(F)F)cc2)cc1 (centres undefined)	inconclusive: 2.51 µM
Cc1c([N+](=O)[O-])cc([N+](=O)[O-])c(Br)c1[N+](=O)[O-]	inconclusive: 12.6 µM
CC(C)c1ccc(OP(C)(=O)Nc2ccc(SC(F)(F)F)cc2)cc1 (centres undefined)	inconclusive: 35.5 µM
